{"source": "the OPERA property sets (Mansouri et al. 2018)"}
{"smiles": "C1CN=C2CCCN2C1", "values": [{"measurement": "logP", "result": -0.17}]}
